PubChem BioAssay AID1259303, Sanger Institute – 2017

- Purpose: 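Follow-up kinase siRNA test for drug synergy in colorectal cancer cells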 (follow-up of hits)
- Cells: human COLO320HSR colorectal cancer cells
- Reagents: single siRNA against human genes
- Challenge: anchor drug BYL719 (1 µM), cetuximab (5 µg/ml) or trametinib (10 nM), or DMSO vehicle alone
- Read-out: 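Replicate-averaged viability relative to non-targeting pool 2 siRNA under DMSO; synergy scores against each drug alone for BYL719 1 µM, cetuximab 5 µg/ml or trametinib 10 nM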
- Scale: synergy score with BYL719: higher = stronger combined killing with BYL719; synergy score with cetuximab: higher = stronger combined killing with cetuximab; synergy score with trametinib: higher = stronger combined killing with trametinib
- Active means: 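a knock-down counts as active when any of the three drug synergy scores exceeds 0.10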
- Calls: active = synergy with at least one drug; inactive = no synergy found
In all, the deposit lists 160 reagents; this is an unselected part. 11 of all reagents (6.9%) count as active. 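Viability capped at 1; how the synergy score is calculated is not stated; four separate siRNAs target each gene.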 The numbers tell different reagents against one gene apart. Not all columns of the deposit are shown. Not stated in the record: the amount of reagent, the time to read-out.

MPP3 (MAGUK p55 scaffold protein 3) #1 | synergy score with BYL719 = 0.0327; synergy score with cetuximab = -0.0363; synergy score with trametinib = -0.0363; activity call = inactive
MPP3 (MAGUK p55 scaffold protein 3) #2 | synergy score with BYL719 = -0.0765; synergy score with cetuximab = 0.00121; synergy score with trametinib = 0.0682; activity call = inactive
MPP3 (MAGUK p55 scaffold protein 3) #3 | synergy score with BYL719 = -0.0177; synergy score with cetuximab = 0; synergy score with trametinib = 0; activity call = inactive
MPP3 (MAGUK p55 scaffold protein 3) #4 | synergy score with BYL719 = -0.0639; synergy score with cetuximab = -0.129; synergy score with trametinib = -0.12; activity call = inactive
STK36 (serine/threonine kinase 36) #1 | synergy score with BYL719 = -0.206; synergy score with cetuximab = -0.153; synergy score with trametinib = -0.432; activity call = inactive
STK36 (serine/threonine kinase 36) #2 | synergy score with BYL719 = -0.194; synergy score with cetuximab = -0.197; synergy score with trametinib = -0.193; activity call = inactive
STK36 (serine/threonine kinase 36) #3 | synergy score with BYL719 = -0.367; synergy score with cetuximab = 0.0286; synergy score with trametinib = -0.102; activity call = inactive
STK36 (serine/threonine kinase 36) #4 | synergy score with BYL719 = -0.182; synergy score with cetuximab = -0.223; synergy score with trametinib = -0.246; activity call = inactive
PLK1 (polo like kinase 1) #1 | synergy score with BYL719 = -0.0569; synergy score with cetuximab = -0.0596; synergy score with trametinib = -0.0248; activity call = inactive
PLK1 (polo like kinase 1) #2 | synergy score with BYL719 = -0.135; synergy score with cetuximab = -0.0864; synergy score with trametinib = -0.143; activity call = inactive
PLK1 (polo like kinase 1) #3 | synergy score with BYL719 = 0.0168; synergy score with cetuximab = -0.0511; synergy score with trametinib = -0.0571; activity call = inactive
PLK1 (polo like kinase 1) #4 | synergy score with BYL719 = -0.093; synergy score with cetuximab = -0.0827; synergy score with trametinib = -0.123; activity call = inactive

Part of the list above, showing only “synergy score with trametinib”:
MPP3 (MAGUK p55 scaffold protein 3) #2: 0.0682
MPP3 (MAGUK p55 scaffold protein 3) #3: 0
